Literature values as cited in patent US6956030B2, “Use of mometasone furoate for treating upper airway diseases” (Schering Corporation, priority 1994, dated 2005).
Some of these results come from one statement about several compounds together.

Details: of the inhalation dose; cited from earlier work

SMILES | systemic bioavailability after oral ingestion
CC1(C)O[C@@H]2C[C@H]3[C@@H]4C[C@H](F)C5=CC(=O)C=C[C@]5(C)[C@H]4[C@@H](O)C[C@]3(C)[C@]2(C(=O)CO)O1 [flunisolide] | > 20%
CC1(C)O[C@@H]2C[C@H]3[C@@H]4CCC5=CC(=O)C=C[C@]5(C)[C@@]4(F)[C@@H](O)C[C@]3(C)[C@]2(C(=O)CO)O1 [triamcinolone acetonide] | > 20%
